{
  "source": "the supplement of paper PMC11237882",
  "note": "The other results are listed elsewhere or left out. Values are worked out from sequencing counts and are noisy.",
  "data": [
    {"target": "T1, Homer1 EVH1 domain", "T1 chain": "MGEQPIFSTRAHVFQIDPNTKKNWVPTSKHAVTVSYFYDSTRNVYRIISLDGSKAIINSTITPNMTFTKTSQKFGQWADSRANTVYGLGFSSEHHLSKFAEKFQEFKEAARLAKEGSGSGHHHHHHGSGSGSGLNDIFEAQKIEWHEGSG", "test": "enrichment score (AUC of log2 frequency ratio across FACS sorting rounds) (log2 AUC); higher = stronger enrichment for Homer1 EVH1 binding", "values": [
      {"binder": "MTTFIPIIFSSVVVVLFVIGNFANGFIALVNSIERA", "enrichment score": 2.56},
      {"binder": "RTQNQVLFFFAAIIFTVSVALHLFSIDEEQYSPQQD", "enrichment score": 2.03},
      {"binder": "KANKALWLSIAFIVLFAALMSFLTGQLFQKSVDAAP", "enrichment score": -2.22},
      {"binder": "KKDLYGTLSPTTPFCWIKDDSIFYISVVAYFCLIFL", "enrichment score": 0.84},
      {"binder": "KKTLQSTLLLLLLVPLIKPAPPTQQDSRIIYDYGTD", "enrichment score": 4.59},
      {"binder": "PYREEDIPAPLNLYGKTKLDGEKAVLENNLGAAVLR", "enrichment score": -2.23},
      {"binder": "MGTLLGLGAVLAYQDHRCRAAQESTHIYTKEEVSSH", "enrichment score": 1.89},
      {"binder": "MANPGLGLLLALGLPFLLARWGRAWGQIQTTSANEN", "enrichment score": 4.38},
      {"binder": "KITNRLTIQRKSQFMQRLHSYWTLKRQSRNGVTLLC", "enrichment score": 3.71},
      {"binder": "QRVLPLKKPPMKSLRKKGSGKILTPAKKSFLRRLFD", "enrichment score": 2.99},
      {"binder": "ILLLLPIFLISTSYVFILQSVIQMRSSGSKRNAFAT", "enrichment score": -1.11},
      {"binder": "ISTSVHHVLIWIHCFTVYLVPCSIFFILNSIIVYKP", "enrichment score": -0.0294}
    ]}
  ]
}
